In publication PMC12399595 one finds binding data, which are given here for one substance.

By UniProt entry, the sequences of proteins in these tests, tags left out. Where a name states a change or a piece, a line headed by the entry shows the natural chain unless it says otherwise.
UniProt P98086: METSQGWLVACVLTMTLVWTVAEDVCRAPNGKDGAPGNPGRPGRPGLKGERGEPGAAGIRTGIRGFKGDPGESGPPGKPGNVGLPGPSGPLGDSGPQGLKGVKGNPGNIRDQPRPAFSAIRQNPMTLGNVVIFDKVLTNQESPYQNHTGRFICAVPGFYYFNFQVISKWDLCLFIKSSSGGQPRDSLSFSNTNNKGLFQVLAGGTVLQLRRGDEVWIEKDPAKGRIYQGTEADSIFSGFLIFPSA

The experiment concerns the target T1, potassium chloride co-transporter 2 (mouse (endogenous in forebrain)) (UniProt Q91V14).
T1 sequence: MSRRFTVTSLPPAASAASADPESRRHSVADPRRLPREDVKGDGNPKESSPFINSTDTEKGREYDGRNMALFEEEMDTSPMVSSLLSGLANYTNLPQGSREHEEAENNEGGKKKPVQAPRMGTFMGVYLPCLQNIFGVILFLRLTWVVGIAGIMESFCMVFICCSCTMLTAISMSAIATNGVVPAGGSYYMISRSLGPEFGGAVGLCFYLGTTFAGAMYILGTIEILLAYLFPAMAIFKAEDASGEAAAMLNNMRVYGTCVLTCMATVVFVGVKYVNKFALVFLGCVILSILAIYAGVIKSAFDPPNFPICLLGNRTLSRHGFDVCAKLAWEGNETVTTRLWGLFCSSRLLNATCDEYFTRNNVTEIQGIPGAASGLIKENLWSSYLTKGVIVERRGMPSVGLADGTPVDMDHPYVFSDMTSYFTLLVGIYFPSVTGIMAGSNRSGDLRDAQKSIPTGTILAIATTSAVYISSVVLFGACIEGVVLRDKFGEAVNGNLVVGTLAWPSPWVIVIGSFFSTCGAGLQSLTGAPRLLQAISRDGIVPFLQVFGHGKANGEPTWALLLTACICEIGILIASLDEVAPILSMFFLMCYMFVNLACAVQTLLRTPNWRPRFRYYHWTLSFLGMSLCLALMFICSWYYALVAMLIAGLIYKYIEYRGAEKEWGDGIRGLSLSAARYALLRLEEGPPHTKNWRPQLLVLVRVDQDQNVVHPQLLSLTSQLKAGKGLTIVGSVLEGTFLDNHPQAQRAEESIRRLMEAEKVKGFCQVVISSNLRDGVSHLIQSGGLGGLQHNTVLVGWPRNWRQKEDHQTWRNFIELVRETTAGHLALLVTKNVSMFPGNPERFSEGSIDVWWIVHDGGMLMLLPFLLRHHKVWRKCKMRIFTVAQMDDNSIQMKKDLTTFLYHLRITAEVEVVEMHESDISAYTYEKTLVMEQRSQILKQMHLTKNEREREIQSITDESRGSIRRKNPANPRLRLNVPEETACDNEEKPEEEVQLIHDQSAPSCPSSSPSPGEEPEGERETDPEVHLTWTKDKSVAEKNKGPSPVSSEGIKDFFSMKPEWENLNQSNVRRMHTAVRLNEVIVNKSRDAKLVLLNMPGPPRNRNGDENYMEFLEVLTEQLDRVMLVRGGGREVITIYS
Kind of experiment: co-IP; KCC2 immunoprecipitated (anti-KCC2 cross-linked to protein G dynabeads, overnight at 4°C) from forebrain plasma membrane fractions of 8-12-week-old mice in Triton lysis buffer (150 mM NaCl, 10 mM Tris, 0.5% Triton X-100, pH 7.5); soft elution; resolved by BN-PAGE and blotted for C1q; n = 1 cohort of 7 animals merged.

These are yes or no findings as the source states them, for the method shown. In cells and extracts the contact can be indirect. Some results given as binding are weak or reduced against the parent protein; the word gives no strength.

“complement C1q (from UniProt P98086 23-245; P14106 26-253; Q02105 30-246) (complex)”: the binding entry is “binds”.
